Source: US10189862B2, “Phenothiazine-pyridine compounds and uses thereof” (The Chinese University of Hong Kong, priority 2016, dated 2019)

What was measured:
HT29 cell line = test: Photocytotoxicity (PDT), MTT assay; format: cell-based
Description: (§1) Cell lines and culture conditions: A549, HT29, MCF-7, MDA-MB-231 cell lines were maintained in RPMI1640 supplemented with fetal bovine serum (10%) and penicillin-streptomycin solution (1%), and WI38 cells were maintained in DMEM supplemented with fetal bovine serum (10%) and penicillin-streptomycin solution (1%). Approximately 1×10^4 (for A549, HT29, MCF-7, MDA-MB-231) or 1.5×10^4 (for WI38) cells per well were seeded in 96-well plate and incubated overnight light at 37° C. in a humidified atmosphere with 5% CO2.
(§2) Photocytotoxicity: Cells were incubated with different concentrations of photosensitive drug for 1 h in the dark, then the medium in the well was sucked by a syringe, and washed by PBS. Then a solution of new medium was added, and illuminated by light. After irradiation, the cells were incubated under dark at 37° C. for another 24 h, and the cell viabilities were determined by MTT assay.

A549 cell line = test: Photocytotoxicity (PDT), MTT assay; format: cell-based
Description: as §1, §2

Compound: CCCCN(CCCC)c1ccc2nc3c(cc(NCCC)c4nc(C)ccc43)[s+]c2c1 [Compound 24, 9-(dibutylamino)-3-methyl-5-(propylamino)pyrido[3,2-a]phenothiazin-7-ium chloride]
- Ratio of DK/PDT (HT29 cell line): 11.4
- Ratio of DK/PDT (A549 cell line): 8.5

Compound: CCN(CC)c1ccc2nc3c(cc(NCCCNC)c4nc(C)ccc43)[s+]c2c1 [Compound 22, 9-(diethylamino)-3-methyl-5-(3-(methylamino)propylamino) pyrido[3,2-a]phenothiazin-7-ium chloride]
- Ratio of DK/PDT (HT29 cell line): 18.6
- Ratio of DK/PDT (A549 cell line): 1.7

Compound: CCCNc1c(I)c2[s+]c3cc(N(CC)CC)ccc3nc2c2ccc(C)nc12 [Compound 23, 9-(diethylamino)-6-iodo-3-methyl-5-(propylamino)pyrido[3,2-a]phenothiazin-7-ium chloride]
- Ratio of DK/PDT (HT29 cell line): 28.2
- Ratio of DK/PDT (A549 cell line): 4.9

Compound: CCN(CC)c1ccc2nc3c(cc(N)c4nc(C)ccc43)[s+]c2c1 [Compound 8, 5-amino-9-(diethylamino)-3-methylpyrido[3,2-a]phenothiazin-7-ium chloride]
- Ratio of DK/PDT (HT29 cell line): 21.9
- Ratio of DK/PDT (A549 cell line): 3.6
